Article PMC5074368

B1: Dab2 in the prey vector pVP16 (protein, UniProt P98082 1-770)
chain: MSNEVETSATNGQPDQQAAPKAPSKKEKKKGPEKTDEYLLARFKGDGVKYKAKLIGIDDVPDARGDKMSQDSMMKLKGMAAAGRSQGQHKQRIWVNISLSGIKIIDEKTGVIEHEHPVNKISFIARDVTDNRAFGYVCGGEGQHQFFAIKTGQQAEPLVVDLKDLFQVIYNVKKKEEEKKKIEEASKAVENGSEALMILDDQTNKLKSGVDQMDLFGDMSTPPDLNSPTESKDILLVDLNSEIDTNQNSLRENPFLTNGITSCSLPRPTPQASFLPENAFSANLNFFPTPNPDPFRDDPFTQPDQSTPSSFDSLKSPDQKKENSSSSSTPLSNGPLNGDVDYFGQQFDQISNRTGKQEAQAGPWPFSSSQTQPAVRTQNGVSEREQNGFSVKSSPNPFVGSPPKGLSIQNGVKQDLESSVQSSPHDSIAIIPPPQSTKPGRGRRTAKSSANDLLASDIFAPPVSEPSGQASPTGQPTALQPNPLDLFKTSAPAPVGPLVGLGGVTVTLPQAGPWNTASLVFNQSPSMAPGAMMGGQPSGFSQPVIFGTSPAVSGWNQPSPFAASTPPPVPVVWGPSASVAPNAWSTTSPLGNPFQSNIFPAPAVSTQPPSMHSSLLVTPPQPPPRAGPPKDISSDAFTALDPLGDKEIKDVKEMFKDFQLRQPPAVPARKGEQTSSGTLSAFASYFNSKVGIPQENADHDDFDANQLLNKINEPPKPAPRQVSLPVTKSTDNAFENPFFKDSFGSSQASVASSQPVSSEMYRDPFGNPFA
B2: NDP52 in the prey vector pVP16 (protein, UniProt Q13137 1-446)
chain: MEETIKDPPTSAVLLDHCHFSQVIFNSVEKFYIPGGDVTCHYTFTQHFIPRRKDWIGIFRVGWKTTREYYTFMWVTLPIDLNNKSAKQQEVQFKAYYLPKDDEYYQFCYVDEDGVVRGASIPFQFRPENEEDILVVTTQGEVEEIEQHNKELCKENQELKDSCISLQKQNSDMQAELQKKQEELETLQSINKKLELKVKEQKDYWETELLQLKEQNQKMSSENEKMGIRVDQLQAQLSTQEKEMEKLVQGDQDKTEQLEQLKKENDHLFLSLTEQRKDQKKLEQTVEQMKQNETTAMKKQQELMDENFDLSKRLSENEIICNALQRQKERLEGENDLLKRENSRLLSYMGLDFNSLPYQVPTSDEGGARQNPGLAYGNPYSGIQESSSPSPLSIKKCPICKADDICDHTLEQQQMQPLCFNCPICDKIFPATEKQIFEDHVFCHSL

Tests used:
Assay in all cases: two-hybrid; mammalian two-hybrid in CHO cells; myosin VI tail WT and mutants in the bait vector pM, binding partners in the prey vector pVP16; read with a microplate luminometer
[1] = biological target: Myosin VI globular tail (amino acids 1036–1294) I1252A, in the bait vector pM (human)
[2] = biological target: Myosin VI globular tail (amino acids 1036–1294) R1108A, in the bait vector pM (human)
[3] = biological target: Myosin VI globular tail (amino acids 1036–1294) W1253A, in the bait vector pM (human)

Row | Binder | binding [1] | binding [2] | binding [3]
1 | B1 | binds |  | 
2 | B2 |  | no binding | binds

Results are given in words; binding and its absence hold for the method and conditions named. For part of these data: A result given as binding can be weak or reduced; the word gives no strength.
